The assay can be described thus: qHTS Assay for Lipid Storage Modulators in Drosophila S3 Cells.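 On cell number change: cells counted by Cell Tracker Red CMTPX staining in the red channel.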 The conditions noted are these: BODIPY lipid droplet fluorescence, 18-24 h; for cell number change: measured here: cell count max response, cells fed with added oleic acid. In a few lines:
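Drosophila S3 cells loaded with oleic acid (400 uM, as added) and compounds at several concentrations; lipid droplets imaged by 488-nm laser-scanning cytometry, 500–530 nm intensity and object ratio to cell channel. Percent activity normalized to 20 uM Triacsin C.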

Setting [1] is: measured here: lipid fluorescence (Fed channel) AC50, cells fed with added oleic acid.
Where [2] appears, read: measured here: cell number channel AC50, cells fed with added oleic acid.

This is one part of the list. Further columns of the screen follow, without active or inactive calls. The list favours compounds with an active or inconclusive main result. Words in brackets tell the shape of the fitted curve; partial curves, single points and poor fits give uncertain potencies.

Among the data in PubChem BioAssay AID2685 (National Center for Advancing Translational Sciences (NCATS), 2010) are cell number change and AC50 values, retold here.

As for `CCc1nnc(NC(=O)C2CCC(CNc3c(N4CCCCC4)c(=O)c3=O)CC2)s1` (centres undefined), the cell number change came out at 15.5%. For the same compound, the AC50 under setting [1] is 25.9 µM [rising, single point]. In the case of `O=C(Nc1cccc(S(=O)(=O)N2CCCCC2)c1)C1CC1`, the cell number change stood at 3.25%. As for `CC1CN(c2c3c(nc4ncnn24)CCCC3)CC(C)O1` (centres undefined), the cell number change was -3.68%. Further, the AC50 under setting [2] was 1.16 µM [falling, full curve]. Under setting [1], the AC50 was 0.651 µM [falling, single point].

As for `COc1cccc(CC(CC(=O)O)C(=O)Nc2cc(C)ccc2C)c1` (centres undefined), the cell number change is 3.94%. `O=C(CSc1nnc(-c2ccncc2)n1Cc1ccccc1)NC1CCCCC1`: the cell number change worked out at 15.5%. Besides, the half-maximal activity concentration (AC50) under setting [1] is 0.259 µM [rising, full curve, poor fit].

As to `CN(CC(O)COC(c1ccccc1)c1ccccc1)C1CCCCC1` (centres undefined), the cell number change came to 7.08%. The AC50 under setting [2] is 6.51 µM [rising, partial curve, poor fit].

Take `Cc1cccc(CCNC(=O)CN(C)S(=O)(=O)c2ccc3c(c2)c(=O)n(C)c(=O)n3C)c1`: the cell number change is -14%. As to `Cc1ccc(Sc2ncnc3onc(C)c23)cc1`, the cell number change is -50.4%. The AC50 under setting [2] was 29.1 µM [falling, single point]. In addition, the half-maximal activity concentration (AC50) under setting [1] was 29.1 µM [falling, single point]. As to `COc1ccc(C(=O)Nc2ccc3c(c2)C(=O)c2ccccc2C3=O)cc1OC`, the cell number change was -22.7%. Besides, the AC50 under setting [1] was 0.116 µM [rising, full curve, poor fit]. As for `COc1cc(NC(=O)N2CCOCC2)cc(OC)c1`, the cell number change was 19.6%. In addition, the half-maximal activity concentration (AC50) under setting [1] was 6.51 µM [falling, single point]. On to `O=C(c1ccc(Cl)c([N+](=O)[O-])c1)N(Cc1ccco1)C1CCS(=O)(=O)C1` (centres undefined), for which the cell number change is -22.1%. For the same compound, under setting [1], the AC50 is 29.1 µM [rising, single point]. Take `COc1ccc(-c2[nH]ncc2-c2nc(C)cs2)c(O)c1`: the cell number change was -30.6%. Take `CCOc1ccc(N(CC(=O)N2CCc3ccccc32)S(=O)(=O)c2c(C)noc2C)cc1`: the cell number change is -19.4%. The AC50 under setting [2] was 0.461 µM [falling, single point]. Besides, under setting [1], the AC50 was 0.651 µM [falling, full curve, poor fit].

Regarding `Cc1sc2ncnc(NCCCO)c2c1C`, the cell number change came to 23.6%. For the same compound, the AC50 under setting [2] was 0.58 µM [falling, single point]. The half-maximal activity concentration (AC50) under setting [1] was 0.517 µM [falling, single point]. For the compound `CN(Cc1ccc(F)cc1)C(=O)c1cccc(S(=O)(=O)N2CCN(c3ccccc3)CC2)c1`, the cell number change is -25%. The half-maximal activity concentration (AC50) under setting [2] is 4.11 µM [falling, single point]. With `COc1ccc(S(=O)(=O)N2CCCCCC2)cc1C(=O)N(C)Cc1ccccc1F`, the cell number change is -11.5%.

In the case of `O=C(Nc1cccc(S(=O)(=O)NCc2ccco2)c1)c1cc(-c2ccc(F)cc2)nc2ccccc12`, the half-maximal activity concentration (AC50) under setting [1] was 29.1 µM [falling, single point]. In the case of `CCOC(=O)c1c(C)[nH]c(C)c1C(=O)COC(=O)COc1ccc(Cl)c(C)c1`, the cell number change was -2.01%.

As to `CC(=O)c1cccc(NC(=O)NCCS(C)=O)c1` (centres undefined), the cell number change stood at 2%. Further, the concentration at half-maximal activity (AC50) under setting [1] was 29.1 µM [rising, single point]. Turning to `O=S(=O)(Nc1nc2ccccc2[nH]1)c1ccc(Cl)cc1`, the cell number change is -11.2%. Besides, the concentration at half-maximal activity (AC50) under setting [1] was 0.146 µM [rising, full curve, poor fit]. Consider `NS(=O)(=O)c1ccc(-c2ccc(/C=C3\C(=O)Nc4ccccc43)o2)cc1`, for which the cell number change turned out to be 21.7%. Still for that read-out and setting: in the case of `O=C(Nc1ccc(Cc2ccncc2)cc1)C1CCC(N2C(=O)C3CC=CCC3C2=O)CC1` (centres undefined) it was -8.6%. Take `COc1ccccc1NC(=O)C1=C(C)Nc2nnnn2C1c1ccccn1` (centres undefined): the cell number change came out at 36.6%. Under setting [2], the concentration at half-maximal activity (AC50) was 5.8 µM [rising, single point]. On to `CCC1(c2ccc(Cl)cc2)NC(=O)N(CC(=O)NC2CCCCCC2)C1=O` (centres undefined), for which the cell number change was 20.1%.

Take `O=C(CCl)N(c1ccc(Cl)cc1)c1c[nH]c2ccccc12`: the cell number change was -46.2%. Further, the AC50 under setting [2] was 18.4 µM [falling, single point]. For the same compound, the AC50 under setting [1] is 29.1 µM [falling, single point].

On to `O=C(CSc1nnc(-c2ccc(O)cc2)n1Cc1ccco1)c1ccccc1`, for which the AC50 reads like this: under setting [2], 6.51 µM [rising, single point]; under setting [1], 6.51 µM [rising, single point]. Regarding `O=C(NC(=S)Nc1ccc(N2CCOCC2)cc1)c1ccco1`, the cell number change amounted to 11%. Moreover, the AC50 under setting [1] was 1.16 µM [falling, single point].

As to `NC(=O)CC(NC(=O)Cc1ccc(Cl)cc1)c1ccc(NCCCN2CCCC2=O)c([N+](=O)[O-])c1` (centres undefined), the cell number change was determined as 10.5%. Moreover, the AC50 under setting [1] is 14.6 µM [rising, partial curve].

Consider `Cc1cc(N2CCN(C)CC2)ccc1NC(=O)c1ccc(-c2ccc(Cl)cc2)o1`, for which the cell number change is 17.5%. Moreover, the AC50 under setting [2] is 2.31 µM [falling, partial curve]. `CC(C)(O)c1[nH]c2ccc(C(F)(F)F)cc2c1C(C)(C)O`: the cell number change was -12.9%. The concentration at half-maximal activity (AC50) under setting [1] was 7.31 µM [falling, single point].

In the case of `COc1cc(/C=c2\s/c(=C(/C#N)C(=O)N3CCCC3)n(-c3ccccc3)c2=O)ccc1O`, the cell number change is -10.5%. Also, under setting [1], the AC50 was 0.206 µM [falling, full curve, poor fit]. For `CCN1/C(=C(\O)c2ccccc2)C(=O)c2ccccc2S1(=O)=O`, the cell number change is -14.2%. Under setting [1], the half-maximal activity concentration (AC50) was 0.517 µM [falling, full curve, poor fit]. On to `N#C/C(=C\c1ccco1)C(=O)NCc1ccccc1`, for which the cell number change stood at 9.28%. Besides, the concentration at half-maximal activity (AC50) under setting [2] is 2.06 µM [rising, partial curve]. In addition, the AC50 under setting [1] is 2.91 µM [rising, partial curve]. Regarding `O=C(CSc1cc(Cl)ccc1Cl)Nc1ccc(N2CCOCC2)cc1`, the cell number change was determined as 22.9%. Further, the half-maximal activity concentration (AC50) under setting [1] was 0.164 µM [rising, full curve, poor fit]. `Cc1nc2c(C(=O)N3CCOCC3)cnn2c(C)c1Cc1cccc(Cl)c1`: the cell number change was -7.2%. In addition, under setting [1], the AC50 was 6.51 µM [rising, single point]. As to `CC(=O)Nc1ccc(S(=O)(=O)N(C)CC(=O)OCC(=O)Nc2cc(C)on2)cc1`, the cell number change came to 1.56%. The half-maximal activity concentration (AC50) under setting [1] is 0.00517 µM [falling, full curve, poor fit]. Regarding `CCOc1cccc(C2/C(=C(/O)c3ccc4c(c3)CC(C)O4)C(=O)C(=O)N2Cc2ccncc2)c1` (centres undefined), under setting [1], the AC50 was 29.1 µM [rising, single point].

As to `CCCc1cc(=O)oc2cc(OCC(=O)NCCCN3CCCC3=O)ccc12`, the cell number change was 14.5%.

Consider `CN1C(=O)/C(=C\c2ccccc2)Sc2ccc(C(=O)N3CCN(c4ccccn4)CC3)cc21`, for which the cell number change was -3.45%. Take `CC(=O)N[C@@H](Cc1c[nH]c2ccccc12)C(=O)NCCc1ccc(S(N)(=O)=O)cc1`: the AC50 under setting [1] is 0.58 µM [falling, single point].

`COCCCNC(=O)c1ccc(CS(=O)(=O)c2cccc(C(F)(F)F)c2)o1`: the cell number change was 24.6%. Moreover, under setting [1], the concentration at half-maximal activity (AC50) is 7.31 µM [rising, partial curve, poor fit]. In the case of `Cc1ccc(SC[C@H](C)CN2CC[C@H](C)CCC2=O)cc1`, the cell number change was -27.8%. In the case of `CCOC(=O)C1=C(OCc2ccc(Cl)cc2)C2C=C(C)C=CC2N=C1` (centres undefined), the cell number change is -9%. Further, under setting [2], the AC50 is 1.3 µM [rising, partial curve, poor fit]. Also, the AC50 under setting [1] is 29.1 µM [rising, single point]. Regarding `CCN1CCN(c2nc3c(c(=O)[nH]c(=O)n3C)n2CCCSc2ncccn2)CC1`, the cell number change is -9.36%. The AC50 under setting [2] was 2.59 µM [rising, partial curve]. Besides, the half-maximal activity concentration (AC50) under setting [1] is 6.51 µM [rising, single point]. As to `Cc1sc2nc(C(C)C)nc(SCC(=O)NC3CC3)c2c1C`, the cell number change is -20%. Moreover, the AC50 under setting [1] was 29.1 µM [falling, single point]. In the case of `COc1ccccc1NC(=O)c1cc2cc(Br)ccc2oc1=N`, the cell number change amounted to 253%. In addition, the half-maximal activity concentration (AC50) under setting [2] was 29.1 µM [rising, single point].

For the compound `Cn1c(=O)[nH]c(=O)c2c1nc(N1CCCCC1)n2CCSc1nc2ccccc2o1`, the cell number change is 27.2%. In addition, the AC50 under setting [1] was 0.092 µM [falling, full curve, poor fit].

Take `COC(=O)c1ccc(Oc2nc(Nc3ccc(C)c(C)c3)nc(N(C)C)n2)cc1`: the cell number change was -27.7%. Still for that read-out and setting: the same measure for `COc1ccc(N=C2SC(CC(=O)Nc3ccc(F)cc3)C(=O)N2Cc2ccco2)cc1` (centres undefined): 0.994%. Regarding `Cc1ccc2c(C)c(C(=O)N3CCC(O)(c4ccccc4)CC3)oc2c1C`, the cell number change was 3.89%. The AC50 under setting [1] was 6.51 µM [rising, single point]. Regarding `Fc1ccccc1-c1nc(-c2cnccc2C(F)(F)F)no1`, the cell number change was -43.4%. Under setting [2], the half-maximal activity concentration (AC50) is 29.1 µM [falling, single point]. The concentration at half-maximal activity (AC50) under setting [1] is 29.1 µM [falling, single point]. With `O=C(Nc1ccc2oc(-c3ccc(F)cc3)nc2c1)c1ccccc1F`, the cell number change came to 23.8%. Further, the AC50 under setting [1] was 0.0731 µM [rising, full curve]. On to `Cc1occc1C(=O)Nc1cccnc1`, for which the AC50 under setting [2] is 5.17 µM [rising, partial curve].

Regarding `COc1cccc(/C=C2\SC(=S)N(CCCC(=O)N(CCO)c3ccccc3)C2=O)c1`, the cell number change worked out at 7.8%. Further, under setting [1], the AC50 is 29.1 µM [falling, single point].

Take `CCOC(=O)c1ccc(CNC(=O)c2cc(C(C)(C)C)oc2C)o1`: the cell number change is -13.4%. Under setting [1], the AC50 was 10.3 µM [rising, partial curve]. In the case of `CC(C)CCSc1nc2c(c(=O)[nH]c(=O)n2C)n1CCc1ccccc1`, the cell number change was -32.8%. Under setting [2], the AC50 was 2.59 µM [falling, full curve]. In addition, under setting [1], the AC50 is 2.91 µM [falling, full curve, poor fit]. With `O[C@@H]1[C@@H](O)C=C2CCN3Cc4cc5c(cc4[C@H]1C23)OCO5` (some centres undefined), the cell number change is -6.04%. Also, the AC50 under setting [2] is 1.64 µM [falling, partial curve]. Besides, the AC50 under setting [1] is 1.3 µM [falling, full curve]. Take `COCCCC1CCN(C(=O)c2cc(COc3cc(C)ccc3C)on2)CC1`: the cell number change is -6.27%. Besides, the concentration at half-maximal activity (AC50) under setting [1] was 29.1 µM [falling, partial curve, poor fit]. In the case of `Cc1ccc(F)cc1CNC(=O)C1CCC(=O)N(C2CC2)C1` (centres undefined), the cell number change was 41.5%. In addition, the concentration at half-maximal activity (AC50) under setting [2] is 29.1 µM [rising, single point]. Consider `CCCS(=O)(=O)N1CCCC(C(=O)NCCN2CCC(Cc3ccccc3)CC2)C1` (centres undefined), for which the cell number change came to 38.8%. For the same compound, the half-maximal activity concentration (AC50) under setting [2] was 32.6 µM [rising, single point]. Under setting [1], the concentration at half-maximal activity (AC50) was 6.51 µM [falling, single point].

As a reminder, the AC50 is the concentration giving half of the maximal activity seen. A low value points to activity at low concentration.
